# ± gives the standard deviation of the averaged measurements. Most values lie within the scatter of the assay; repeated measurements hardly agree.
# Protein sequences, listed by entry. Tags and fused reporters are not part of them. Lines headed by an entry give the natural chain unless they say otherwise; changes in a name come on top.
# UniProt Q99614: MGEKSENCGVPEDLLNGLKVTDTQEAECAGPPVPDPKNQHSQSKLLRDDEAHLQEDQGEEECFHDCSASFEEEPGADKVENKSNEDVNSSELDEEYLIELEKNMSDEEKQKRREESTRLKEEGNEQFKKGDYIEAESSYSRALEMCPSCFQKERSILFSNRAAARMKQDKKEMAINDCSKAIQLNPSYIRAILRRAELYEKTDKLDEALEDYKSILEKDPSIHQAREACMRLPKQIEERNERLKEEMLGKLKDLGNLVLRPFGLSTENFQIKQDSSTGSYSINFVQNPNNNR
# UniProt Q969T4: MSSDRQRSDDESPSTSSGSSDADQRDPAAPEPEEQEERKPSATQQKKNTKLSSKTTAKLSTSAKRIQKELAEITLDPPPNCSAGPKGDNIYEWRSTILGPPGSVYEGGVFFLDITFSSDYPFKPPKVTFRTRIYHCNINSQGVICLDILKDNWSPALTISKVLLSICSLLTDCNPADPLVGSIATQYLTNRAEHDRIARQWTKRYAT
# UniProt Q9C0C9: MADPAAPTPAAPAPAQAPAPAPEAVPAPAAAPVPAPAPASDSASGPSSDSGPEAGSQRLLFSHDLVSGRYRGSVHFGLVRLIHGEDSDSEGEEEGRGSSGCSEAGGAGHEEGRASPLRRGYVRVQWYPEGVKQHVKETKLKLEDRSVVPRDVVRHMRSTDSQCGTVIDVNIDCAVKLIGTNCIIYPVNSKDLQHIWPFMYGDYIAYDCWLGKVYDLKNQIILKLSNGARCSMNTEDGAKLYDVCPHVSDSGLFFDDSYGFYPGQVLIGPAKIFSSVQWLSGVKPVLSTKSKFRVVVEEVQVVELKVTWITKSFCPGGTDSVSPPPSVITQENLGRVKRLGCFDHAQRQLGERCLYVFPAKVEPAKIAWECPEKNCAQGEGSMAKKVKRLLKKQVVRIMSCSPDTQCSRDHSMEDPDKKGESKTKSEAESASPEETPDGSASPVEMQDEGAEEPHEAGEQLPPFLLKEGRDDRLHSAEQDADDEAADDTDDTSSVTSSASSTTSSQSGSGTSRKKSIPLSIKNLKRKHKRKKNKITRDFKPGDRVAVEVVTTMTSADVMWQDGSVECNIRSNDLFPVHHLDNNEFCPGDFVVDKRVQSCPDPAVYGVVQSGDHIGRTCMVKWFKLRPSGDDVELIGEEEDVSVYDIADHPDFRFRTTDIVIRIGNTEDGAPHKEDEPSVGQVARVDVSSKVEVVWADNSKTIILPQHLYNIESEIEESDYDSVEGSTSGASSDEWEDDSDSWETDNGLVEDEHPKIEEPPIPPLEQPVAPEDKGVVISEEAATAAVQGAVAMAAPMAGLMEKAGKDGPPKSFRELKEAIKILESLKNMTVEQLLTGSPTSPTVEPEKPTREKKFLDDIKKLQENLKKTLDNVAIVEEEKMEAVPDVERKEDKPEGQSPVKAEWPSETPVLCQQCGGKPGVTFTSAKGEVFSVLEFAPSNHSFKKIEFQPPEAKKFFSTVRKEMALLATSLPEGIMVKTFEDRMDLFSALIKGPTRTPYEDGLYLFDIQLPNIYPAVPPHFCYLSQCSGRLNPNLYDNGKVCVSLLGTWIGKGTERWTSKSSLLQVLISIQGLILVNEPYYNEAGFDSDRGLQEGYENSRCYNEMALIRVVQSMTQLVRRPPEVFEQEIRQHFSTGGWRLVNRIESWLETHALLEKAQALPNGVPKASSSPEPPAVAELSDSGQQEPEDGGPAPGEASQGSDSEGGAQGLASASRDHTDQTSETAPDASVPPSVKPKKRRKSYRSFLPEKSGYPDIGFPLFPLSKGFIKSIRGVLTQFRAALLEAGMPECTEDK
# UniProt Q96PU4: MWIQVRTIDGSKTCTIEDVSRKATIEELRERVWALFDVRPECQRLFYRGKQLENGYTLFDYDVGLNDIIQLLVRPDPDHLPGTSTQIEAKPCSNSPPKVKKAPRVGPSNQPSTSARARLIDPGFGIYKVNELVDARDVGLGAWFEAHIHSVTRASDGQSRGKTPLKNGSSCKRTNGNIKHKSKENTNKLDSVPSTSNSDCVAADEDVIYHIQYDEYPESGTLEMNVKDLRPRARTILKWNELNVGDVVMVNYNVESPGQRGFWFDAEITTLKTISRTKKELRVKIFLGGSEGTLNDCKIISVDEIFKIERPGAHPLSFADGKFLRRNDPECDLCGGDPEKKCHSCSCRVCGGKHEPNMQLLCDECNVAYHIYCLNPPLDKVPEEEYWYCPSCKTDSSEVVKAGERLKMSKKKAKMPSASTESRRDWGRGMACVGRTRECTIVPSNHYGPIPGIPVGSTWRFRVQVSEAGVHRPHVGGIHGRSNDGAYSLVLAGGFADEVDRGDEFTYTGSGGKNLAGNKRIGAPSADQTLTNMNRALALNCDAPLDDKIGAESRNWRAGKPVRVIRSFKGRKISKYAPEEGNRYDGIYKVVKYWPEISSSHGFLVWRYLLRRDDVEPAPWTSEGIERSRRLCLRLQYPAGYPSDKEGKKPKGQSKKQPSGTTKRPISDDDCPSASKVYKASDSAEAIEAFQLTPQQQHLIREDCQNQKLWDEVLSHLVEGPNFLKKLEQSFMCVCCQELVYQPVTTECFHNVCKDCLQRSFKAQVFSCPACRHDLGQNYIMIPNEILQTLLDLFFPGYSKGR
# UniProt P13051, whole entry, looked up: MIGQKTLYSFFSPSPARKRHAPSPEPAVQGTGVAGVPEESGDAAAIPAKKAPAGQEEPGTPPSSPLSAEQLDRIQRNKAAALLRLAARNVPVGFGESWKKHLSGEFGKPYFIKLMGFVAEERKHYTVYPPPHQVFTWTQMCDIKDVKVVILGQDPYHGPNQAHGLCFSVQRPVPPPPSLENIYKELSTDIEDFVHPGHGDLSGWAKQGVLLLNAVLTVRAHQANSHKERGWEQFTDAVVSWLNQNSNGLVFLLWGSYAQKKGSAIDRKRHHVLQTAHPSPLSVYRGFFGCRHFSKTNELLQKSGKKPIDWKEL
# UniProt Q16831: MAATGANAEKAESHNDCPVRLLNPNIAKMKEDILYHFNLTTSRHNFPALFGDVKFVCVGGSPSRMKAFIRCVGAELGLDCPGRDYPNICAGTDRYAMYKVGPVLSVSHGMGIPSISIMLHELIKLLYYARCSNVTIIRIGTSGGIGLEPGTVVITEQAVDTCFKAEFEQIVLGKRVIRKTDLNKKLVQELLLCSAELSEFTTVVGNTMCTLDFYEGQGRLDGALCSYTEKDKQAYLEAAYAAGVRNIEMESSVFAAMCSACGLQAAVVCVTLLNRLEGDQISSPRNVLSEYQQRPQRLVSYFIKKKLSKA
# UniProt Q9Y5J1: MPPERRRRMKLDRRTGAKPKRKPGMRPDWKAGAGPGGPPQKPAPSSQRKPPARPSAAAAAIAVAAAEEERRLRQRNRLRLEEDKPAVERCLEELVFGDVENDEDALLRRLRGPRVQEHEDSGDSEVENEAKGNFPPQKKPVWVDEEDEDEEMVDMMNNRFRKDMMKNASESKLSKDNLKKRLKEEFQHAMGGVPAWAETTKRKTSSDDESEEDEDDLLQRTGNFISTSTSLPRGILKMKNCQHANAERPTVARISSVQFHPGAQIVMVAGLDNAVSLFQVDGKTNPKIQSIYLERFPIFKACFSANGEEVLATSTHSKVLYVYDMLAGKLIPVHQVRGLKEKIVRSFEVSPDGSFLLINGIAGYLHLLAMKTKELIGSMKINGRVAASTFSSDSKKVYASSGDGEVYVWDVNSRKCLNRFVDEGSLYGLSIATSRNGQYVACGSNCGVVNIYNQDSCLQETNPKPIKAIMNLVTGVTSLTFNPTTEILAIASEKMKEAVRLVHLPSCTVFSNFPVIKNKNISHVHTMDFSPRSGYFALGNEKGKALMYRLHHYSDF
# UniProt O43159: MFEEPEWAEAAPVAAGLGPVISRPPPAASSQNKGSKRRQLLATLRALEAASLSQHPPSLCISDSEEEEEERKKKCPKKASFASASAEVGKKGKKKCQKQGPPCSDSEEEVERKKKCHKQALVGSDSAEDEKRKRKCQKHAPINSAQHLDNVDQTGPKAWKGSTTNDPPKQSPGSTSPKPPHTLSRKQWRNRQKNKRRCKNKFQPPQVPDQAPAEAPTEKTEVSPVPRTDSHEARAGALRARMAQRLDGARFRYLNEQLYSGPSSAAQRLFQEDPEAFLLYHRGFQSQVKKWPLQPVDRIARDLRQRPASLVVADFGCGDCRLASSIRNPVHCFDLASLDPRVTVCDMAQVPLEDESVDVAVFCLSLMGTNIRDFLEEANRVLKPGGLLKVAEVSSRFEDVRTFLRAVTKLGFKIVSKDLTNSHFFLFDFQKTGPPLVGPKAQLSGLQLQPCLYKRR
# UniProt O43237, whole entry, looked up: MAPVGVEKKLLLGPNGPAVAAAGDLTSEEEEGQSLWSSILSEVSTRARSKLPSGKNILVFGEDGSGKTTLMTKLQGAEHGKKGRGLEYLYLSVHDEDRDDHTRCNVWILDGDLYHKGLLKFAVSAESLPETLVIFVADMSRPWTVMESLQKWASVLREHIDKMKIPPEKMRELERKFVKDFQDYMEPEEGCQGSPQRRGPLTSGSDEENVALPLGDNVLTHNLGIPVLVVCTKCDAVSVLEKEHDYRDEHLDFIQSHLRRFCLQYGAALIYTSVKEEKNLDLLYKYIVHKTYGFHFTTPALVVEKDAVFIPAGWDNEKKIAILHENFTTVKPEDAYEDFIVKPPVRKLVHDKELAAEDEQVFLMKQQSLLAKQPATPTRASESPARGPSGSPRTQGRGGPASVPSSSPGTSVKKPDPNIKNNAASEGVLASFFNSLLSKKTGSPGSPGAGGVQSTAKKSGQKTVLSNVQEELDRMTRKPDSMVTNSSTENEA
# UniProt O43294, whole entry, looked up: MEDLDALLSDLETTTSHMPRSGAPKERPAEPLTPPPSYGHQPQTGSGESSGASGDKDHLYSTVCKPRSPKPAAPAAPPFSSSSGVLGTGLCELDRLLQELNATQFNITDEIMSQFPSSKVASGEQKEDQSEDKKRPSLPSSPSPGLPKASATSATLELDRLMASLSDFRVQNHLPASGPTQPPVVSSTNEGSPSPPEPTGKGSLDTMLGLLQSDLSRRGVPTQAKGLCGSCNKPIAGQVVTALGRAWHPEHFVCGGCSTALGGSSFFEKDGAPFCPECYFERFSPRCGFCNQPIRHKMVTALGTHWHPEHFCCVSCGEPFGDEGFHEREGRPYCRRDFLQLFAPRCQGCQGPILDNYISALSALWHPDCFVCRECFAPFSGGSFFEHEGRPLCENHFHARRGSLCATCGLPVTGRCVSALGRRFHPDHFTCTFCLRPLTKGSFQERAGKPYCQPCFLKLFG
# UniProt O60296: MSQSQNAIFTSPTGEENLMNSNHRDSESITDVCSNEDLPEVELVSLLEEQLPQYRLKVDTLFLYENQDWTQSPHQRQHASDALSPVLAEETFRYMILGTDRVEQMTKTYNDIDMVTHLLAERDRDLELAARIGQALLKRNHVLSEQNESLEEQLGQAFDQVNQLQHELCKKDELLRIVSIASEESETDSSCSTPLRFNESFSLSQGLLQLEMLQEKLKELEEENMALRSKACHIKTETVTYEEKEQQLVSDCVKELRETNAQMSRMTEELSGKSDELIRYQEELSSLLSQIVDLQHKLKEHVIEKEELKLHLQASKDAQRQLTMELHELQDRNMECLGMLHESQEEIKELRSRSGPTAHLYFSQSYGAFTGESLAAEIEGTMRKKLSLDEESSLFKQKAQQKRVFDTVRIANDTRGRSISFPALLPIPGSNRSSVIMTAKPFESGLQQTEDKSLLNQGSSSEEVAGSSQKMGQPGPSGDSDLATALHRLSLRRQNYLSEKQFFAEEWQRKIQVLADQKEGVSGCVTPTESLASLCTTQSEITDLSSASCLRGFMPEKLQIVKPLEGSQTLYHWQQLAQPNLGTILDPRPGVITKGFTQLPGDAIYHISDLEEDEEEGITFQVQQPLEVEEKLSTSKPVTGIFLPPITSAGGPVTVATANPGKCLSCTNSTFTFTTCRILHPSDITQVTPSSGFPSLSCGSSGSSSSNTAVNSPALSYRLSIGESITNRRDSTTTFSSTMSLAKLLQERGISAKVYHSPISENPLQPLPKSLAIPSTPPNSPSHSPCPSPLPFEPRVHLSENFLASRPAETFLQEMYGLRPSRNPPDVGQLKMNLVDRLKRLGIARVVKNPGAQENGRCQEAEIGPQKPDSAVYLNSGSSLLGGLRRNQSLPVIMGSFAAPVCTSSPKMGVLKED
# UniProt O60664: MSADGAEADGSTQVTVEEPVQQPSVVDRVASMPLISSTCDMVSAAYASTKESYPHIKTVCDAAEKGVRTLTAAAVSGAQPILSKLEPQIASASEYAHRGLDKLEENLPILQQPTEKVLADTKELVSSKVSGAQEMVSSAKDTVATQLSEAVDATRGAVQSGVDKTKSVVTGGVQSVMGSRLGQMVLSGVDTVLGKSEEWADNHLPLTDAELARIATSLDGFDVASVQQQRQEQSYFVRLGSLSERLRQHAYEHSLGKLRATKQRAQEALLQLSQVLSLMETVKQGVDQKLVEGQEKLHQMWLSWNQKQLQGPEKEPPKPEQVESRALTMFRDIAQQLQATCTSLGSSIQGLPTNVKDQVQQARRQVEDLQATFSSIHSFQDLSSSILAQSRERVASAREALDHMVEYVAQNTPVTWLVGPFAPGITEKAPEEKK
# Compound: CC[C@@H](C)Nc1cc(C(=O)N[C@H]2C[C@H]3CC[C@@H](C2)N3c2ccc(C(=O)C3CC3)cn2)c(C)cc1C(N)=O [XL888]
# Assay: phosphopeptide melting temperature shift (XL888 minus DMSO); higher = stabilised by drug treatment
# Conditions: 100 µM; treatment time 2 h; layout: intact cells; SK-Mel 28
# Experimental: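 Phospho-TPP in intact SK-Mel 28 cells treated with 100 uM XL888 or DMSO for 2 h, heated at 10 temperatures (37-67 C) for 3 min, soluble fraction TMT10plex-labelled and TiO2 phospho-enriched. Melting curves were fitted per phosphopeptide; the value is the melting point difference (drug minus vehicle) in each of two biological replicates.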
row,Target,phosphopeptide melting temperature shift [°C]
1,TRIM56 phosphosite_469 (phosphosite position: 469) (UniProt Q9BRZ2),0.988
2,TRIM56 phosphosite_475 (phosphosite position: 475) (UniProt Q9BRZ2),0.566
3,TTC1 phosphosite_83 (phosphosite position: 83) (UniProt Q99614),-4.25
4,TTC33 phosphosite_197 (phosphosite position: 197) (UniProt Q6PID6),1.71 ± 1.2
5,TWISTNB phosphosite_304 (phosphosite position: 304) (UniProt Q3B726),1.55
6,TWISTNB phosphosite_316 (phosphosite position: 316) (UniProt Q3B726),0.629 ± 0.77
7,TXNDC9 phosphosite_221 (phosphosite position: 221) (UniProt O14530),0.668
8,TXNDC9 phosphosite_223 (phosphosite position: 223) (UniProt O14530),0.668
9,UBA2 phosphosite_207 (phosphosite position: 207) (UniProt Q9UBT2),1.52 ± 0.33
10,UBE2E3 phosphosite_8 (phosphosite position: 8) (UniProt Q969T4),0.177 ± 0.69
11,UBE2O phosphosite_839 (phosphosite position: 839) (UniProt Q9C0C9),-1.68
12,UBE4B phosphosite_124 (phosphosite position: 124) (UniProt O95155),0.698 ± 0.82
13,UBE4B phosphosite_1265 (phosphosite position: 1265) (UniProt O95155),0.568 ± 1.4
14,UHRF1BP1L phosphosite_414 (phosphosite position: 414) (UniProt A0JNW5),0.152
15,UHRF2 phosphosite_667 (phosphosite position: 667) (UniProt Q96PU4),-2.33
16,UNG phosphosite_23 (phosphosite position: 23) (UniProt P13051),0.565 ± 2.4
17,UNG phosphosite_60 (phosphosite position: 60) (UniProt P13051),1.95 ± 0.27
18,UPP1 phosphosite_61 (phosphosite position: 61) (UniProt Q16831),0.58
19,USP7 phosphosite_18 (phosphosite position: 18) (UniProt Q93009),1.68 ± 0.39
20,USP15 phosphosite_229 (phosphosite position: 229) (UniProt Q9Y4E8),2.08
21,USP32 phosphosite_1350 (phosphosite position: 1350) (UniProt Q8NFA0),0.085 ± 0.22
22,UTP18 phosphosite_121 (phosphosite position: 121) (UniProt Q9Y5J1),1.49 ± 1.1
23,UTP18 phosphosite_124 (phosphosite position: 124) (UniProt Q9Y5J1),1.55 ± 1
24,UTP20 phosphosite_2601 (phosphosite position: 2601) (UniProt O75691),0.974
25,UniProt A1L390-3_phosphosite_432 (phosphosite position: 432),1.28

row,Target,phosphopeptide melting temperature shift [°C]
1,UniProt A3KN83-3_phosphosite_687 (phosphosite position: 687),1.64 ± 1.8
2,UniProt A3KN83-3_phosphosite_690 (phosphosite position: 690),1.86 ± 1.5
3,UniProt A3KN83-3_phosphosite_691 (phosphosite position: 691),1.86 ± 1.5
4,UniProt A3KN83-3_phosphosite_695 (phosphosite position: 695),1.18
5,UniProt O00141-4_phosphosite_64 (phosphosite position: 64),5.91
6,UniProt O00141-4_phosphosite_68 (phosphosite position: 68),5.7
7,UniProt O00203-3_phosphosite_703 (phosphosite position: 703),1.03 ± 0.56
8,UniProt O00264-2_phosphosite_129 (phosphosite position: 129),2.56
9,UniProt O14497-2_phosphosite_363 (phosphosite position: 363),-2.28
10,UniProt O14617-2_phosphosite_541 (phosphosite position: 541),0.374 ± 0.27
11,UniProt O14617-2_phosphosite_543 (phosphosite position: 543),0.405 ± 0.43
12,UniProt O14617-2_phosphosite_545 (phosphosite position: 545),0.423 ± 0.4
13,UniProt O14974-4_phosphosite_299 (phosphosite position: 299),3.64
14,UniProt O14974-4_phosphosite_409 (phosphosite position: 409),-2.35
15,UniProt O14974-4_phosphosite_812 (phosphosite position: 812),0.768
16,UniProt O15027-2_phosphosite_391 (phosphosite position: 391),1.46 ± 0.92
17,UniProt O15027-2_phosphosite_891 (phosphosite position: 891),5.66
18,UniProt O15027-2_phosphosite_1149 (phosphosite position: 1149),-2.2
19,UniProt O15164-2_phosphosite_991 (phosphosite position: 991),-0.845
20,UniProt O15164-2_phosphosite_994 (phosphosite position: 994),-0.845
21,UniProt O43159_phosphosite_62 (phosphosite position: 62),0.628 ± 5.8
22,UniProt O43159_phosphosite_64 (phosphosite position: 64),0.628 ± 5.8
23,UniProt O43166-3_phosphosite_1528 (phosphosite position: 1528),0.718
24,UniProt O43166-3_phosphosite_1530 (phosphosite position: 1530),1.61
25,UniProt O43166-3_phosphosite_1564 (phosphosite position: 1564),2.98 ± 0.62

# Not a retest: an excerpt of the list.
row,Target,phosphopeptide melting temperature shift [°C]
9,UniProt O14497-2_phosphosite_363 (phosphosite position: 363),-2.28
10,UniProt O14617-2_phosphosite_541 (phosphosite position: 541),0.374 ± 0.27

# 3 entries picked at random from the list so far, as already listed:
row,Target,phosphopeptide melting temperature shift [°C]
21,UniProt O43159_phosphosite_62 (phosphosite position: 62),0.628 ± 5.8
10,UniProt O14617-2_phosphosite_541 (phosphosite position: 541),0.374 ± 0.27
18,UniProt O15027-2_phosphosite_1149 (phosphosite position: 1149),-2.2

# More results follow.

row,Target,phosphopeptide melting temperature shift [°C]
1,UniProt O43237-2_phosphosite_117 (phosphosite position: 117),0.622 ± 0.34
2,UniProt O43237-2_phosphosite_128 (phosphosite position: 128),-0.155
3,UniProt O43294-2_phosphosite_16 (phosphosite position: 16),0.794
4,UniProt O43294-2_phosphosite_120 (phosphosite position: 120),0.481 ± 1.9
5,UniProt O43294-2_phosphosite_124 (phosphosite position: 124),2.43
6,UniProt O43294-2_phosphosite_177 (phosphosite position: 177),3.8 ± 2.8
7,UniProt O43314-2_phosphosite_38 (phosphosite position: 38),0.496 ± 1.1
8,UniProt O43314-2_phosphosite_492 (phosphosite position: 492),-1.58
9,UniProt O43353-2_phosphosite_394 (phosphosite position: 394),-2.23
10,UniProt O43665-3_phosphosite_16 (phosphosite position: 16),4.62 ± 0.2
11,UniProt O43847_phosphosite_94 (phosphosite position: 94),1.62 ± 2
12,UniProt O60256-4_phosphosite_141 (phosphosite position: 141),-0.631 ± 2.3
13,UniProt O60296_phosphosite_776 (phosphosite position: 776),0.469 ± 1.6
14,UniProt O60296_phosphosite_780 (phosphosite position: 780),0.469 ± 1.6
15,UniProt O60296_phosphosite_784 (phosphosite position: 784),1.58
16,UniProt O60341_phosphosite_166 (phosphosite position: 166),3.02
17,UniProt O60343-2_phosphosite_673 (phosphosite position: 673),1.77
18,UniProt O60573-2_phosphosite_13 (phosphosite position: 13),1.16 ± 0.81
19,UniProt O60664_phosphosite_130 (phosphosite position: 130),2.1 ± 0.67
20,UniProt O60716-24_phosphosite_129 (phosphosite position: 129),0.087
21,UniProt O75030-11_phosphosite_245 (phosphosite position: 245),2.5 ± 2.2
22,UniProt O75179-4_phosphosite_1474 (phosphosite position: 1474),0.276
23,UniProt O75376-2_phosphosite_158 (phosphosite position: 158),2.74 ± 4.5
24,UniProt O75376-2_phosphosite_172 (phosphosite position: 172),3.3 ± 6.2
25,UniProt O75382-3_phosphosite_348 (phosphosite position: 348),0.514

# — the supplement of paper PMC5836539
